Screen size: about 390,000 compounds; about 910 (0.23%) were called active. This list was built around the results that the source calls inconclusive (neither active nor inactive); the mix of calls is not that of the screen. Calls come from the whole dose curve; as a rule, active = well fitted inhibition curve with a large enough effect; inconclusive = small, poorly fitted or top-dose-only effect; inactive = no such curve, though single readings can be large or run the other way. Potencies beside an inconclusive call are fits to weak or partial responses and may not hold up.
The compounds below were run against Ubiquitin carboxyl-terminal hydrolase 1 (Homo sapiens) (UniProt O94782) (assay: Inhibitors of USP1/UAF1: Primary Screen). Settings: recombinant USP1/UAF1, Ub-Rhodamine cleavage fluorescence; activity change, negative = inhibition: at 57.1 µM (top of the series).
Outline: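 Step one: compound is pinned into 1nM USP1/UAF1 in HEPES pH 7.8 buffer with TCEP. Step two: 15 min room-temperature incubation. Step three: Ub-Rho (150nM final) starts cleavage, tracked by fluorescence over six one-minute reads.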
% is set by controls: 0 for no effect and ±100 for the full control effect; potency is the fitted concentration of half-maximal effect.
Note: nearly all actives have a fitted effect of over 60% in size.

Sequences of proteins named here, by UniProt entry; tags and fusion partners are left off. A change or cut given only in a name is not applied to a line headed by its entry.
UniProt O94782: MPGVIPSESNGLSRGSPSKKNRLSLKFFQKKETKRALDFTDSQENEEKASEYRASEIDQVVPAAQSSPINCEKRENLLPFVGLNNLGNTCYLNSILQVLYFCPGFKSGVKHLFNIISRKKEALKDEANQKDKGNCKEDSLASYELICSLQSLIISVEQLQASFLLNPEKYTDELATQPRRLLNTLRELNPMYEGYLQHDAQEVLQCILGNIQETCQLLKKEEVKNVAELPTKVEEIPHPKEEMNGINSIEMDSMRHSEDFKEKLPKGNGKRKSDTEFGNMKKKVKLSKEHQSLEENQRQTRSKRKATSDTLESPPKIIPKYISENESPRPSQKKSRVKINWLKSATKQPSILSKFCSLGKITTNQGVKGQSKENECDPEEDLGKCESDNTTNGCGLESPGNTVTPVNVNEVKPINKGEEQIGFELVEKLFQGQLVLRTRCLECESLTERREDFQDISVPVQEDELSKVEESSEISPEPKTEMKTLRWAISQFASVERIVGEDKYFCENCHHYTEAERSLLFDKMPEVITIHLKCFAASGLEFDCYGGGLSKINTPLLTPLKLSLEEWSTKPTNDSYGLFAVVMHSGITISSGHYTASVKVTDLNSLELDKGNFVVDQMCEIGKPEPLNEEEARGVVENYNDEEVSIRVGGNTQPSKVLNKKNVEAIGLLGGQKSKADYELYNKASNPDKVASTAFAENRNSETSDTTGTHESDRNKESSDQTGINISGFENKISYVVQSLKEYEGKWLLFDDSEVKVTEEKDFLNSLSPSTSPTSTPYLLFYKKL

SMILES	activity change, negative = inhibition	Potency
O=C(NCCCN1CCCC1=O)c1cc2c(s1)CCCCC2	inactive: -13.7%	
COCC1CCN(Cc2nc(-c3cccs3)no2)C1 (configuration not stated)		inconclusive: 44.7 µM [inhibitor, partial curve, poor fit]
Cn1c(SCC(=O)NC2CCCCC2)nnc1-c1cccc(N)c1	inactive: -19.1%	
Cc1ccc(OCC(=O)Nc2ccc3nc(Nc4cccc(Cl)c4)cc(C)c3c2)cc1		inconclusive: 12.6 µM [inhibitor, partial curve, poor fit]
COc1ccc(-c2nc3sc(CCNS(=O)(=O)c4ccc(F)c(C)c4)c(C)n3n2)cc1		inconclusive: 39.8 µM [inhibitor, partial curve, poor fit]
O=C(CN1CCCc2ccccc21)Nc1ccccc1[N+](=O)[O-]		inconclusive: 28.2 µM [inhibitor, partial curve]
CC(C)CN(C(=O)COc1ccccc1C(=O)NCc1ccccc1)C1CCS(=O)(=O)C1 (configuration not stated)		inconclusive: 0.282 µM [inhibitor, full curve, poor fit]
CN(C)CC(=O)Nc1ccc2c(c1)[C@H]1C[C@H](CC(=O)NCc3ccc4c(c3)OCO4)O[C@H](CO)[C@H]1O2		inconclusive: 50.1 µM [inhibitor, partial curve]
N#Cc1c(Nc2cccc(F)c2)sc(C(=O)c2ccc(Cl)cc2)c1N	inactive: -21.4%	
COc1ccc(S(=O)(=O)Nc2cccc(-c3ccc(N4CCCC4)nn3)c2)cc1OC		inconclusive: 2.51 µM [inhibitor, full curve, poor fit]
Cc1ccc(C)c(CN2C(=O)CSc3ccc(C(=O)NCCc4ccc(Cl)cc4)cc32)c1		inconclusive: 50.1 µM [inhibitor, partial curve, poor fit]
c1c2c(cc3sc(N4CCCCC4)nc13)OCO2	inactive: -24.5%	
CC1(C)O[C@@H]2C[C@H]3[C@@H]4C[C@H](F)C5=CC(=O)C=C[C@]5(C)[C@@]4(F)[C@@H](O)C[C@]3(C)[C@]2(C(=O)CO)O1	inactive: -24.3%	
COc1ccc(Cc2nnc(SCC(=O)N3CCc4ccccc4C3)o2)cc1		inconclusive: 25.1 µM [inhibitor, partial curve]
CCC(C)c1ccccc1NC(=O)c1[nH]c(C)c(C(C)=O)c1C (configuration not stated)	inactive: -15%	
CC(C)(C)OC(=O)N1CC=C2C(C#N)=C(N)C(C#N)(C#N)C(c3cccs3)C2C1 (configuration not stated)		inconclusive: 35.5 µM [inhibitor, partial curve]
CC(C)OC(=O)CN1C(=O)S/C(=C/c2ccc(N3CCCCC3)o2)C1=O		inconclusive: 31.6 µM [inhibitor, partial curve, poor fit]
O=C(CS(=O)(=O)c1nc(-c2ccc(Cl)cc2)cn1-c1ccccc1)Nc1ccc(F)cc1F		inconclusive: 7.94 µM [inhibitor, single point]
CCCCC1=CC2=CC(=O)C(C)(OC(=O)CC)C(=O)C2=CN1CCCOC(C)C (configuration not stated)		inconclusive: 39.8 µM [inhibitor, partial curve]
Cc1ccc(S(=O)(=O)N2CCOCC2)cc1C(=O)OCC(=O)N1CCc2ccccc2C1		inconclusive: 35.5 µM [inhibitor, partial curve]
Cc1ccc(C)c(NC(=O)c2nnn(CC(=O)Nc3cccc(C)c3C)c2N)c1		inconclusive: 10 µM [inhibitor, single point]

Whole records, looked up by structure.
O=C(CN1CCCc2ccccc21)Nc1ccccc1[N+](=O)[O-] is listed with Potency: inconclusive: 28.2 µM [inhibitor, partial curve]
CC1(C)O[C@@H]2C[C@H]3[C@@H]4C[C@H](F)C5=CC(=O)C=C[C@]5(C)[C@@]4(F)[C@@H](O)C[C@]3(C)[C@]2(C(=O)CO)O1 is listed with activity change, negative = inhibition: inactive: -24.3%
COc1ccc(-c2nc3sc(CCNS(=O)(=O)c4ccc(F)c(C)c4)c(C)n3n2)cc1 is listed with Potency: inconclusive: 39.8 µM [inhibitor, partial curve, poor fit]

Additional results

SMILES	activity change, negative = inhibition	Potency
Oc1cc(CNCc2ccccc2)c(O)cc1CNCc1ccccc1		inconclusive: 31.6 µM [inhibitor, partial curve]
CCN(CC)c1ccc(/C=C2\C(=N)N3N=C(CC(=O)N4CCOCC4)SC3=NC2=O)cc1		inconclusive: 25.1 µM [inhibitor, partial curve]
Cc1ccccc1-c1nc(CS(=O)(=O)CC(=O)N2CCc3ccccc3C2)c(C)o1		inconclusive: 35.5 µM [inhibitor, partial curve, poor fit]
O=C(CCN1CCCC1Cc1ccccc1)c1ccc2c(c1)OCCO2 (configuration not stated)	inactive: -16.8%	
CN(C)c1cccc2c1c(NC(=O)Nc1ccccc1)nn2C		inconclusive: 25.1 µM [inhibitor, single point]
COc1ccc(/C(N)=N/OC(=O)C2CCCCC2)cc1OC	inactive: -7.52%	
C[C@H]1C=C(C(=O)NC2CC2)O[C@@H](OCc2ccc(CO)cc2)C1		inconclusive: 50.1 µM [inhibitor, partial curve, poor fit]
C#CCNC(=O)C1=C[C@H](c2ccccc2)C[C@H](OCCCCO)O1		inconclusive: 3.98 µM [inhibitor, full curve, poor fit]
COc1ccc(S(=O)(=O)c2ccc(O)cc2)cc1	inactive: -3.33%	
CCNC(=S)N(Cc1cc2cc(C)c(C)cc2[nH]c1=O)C1CCCC1		inconclusive: 7.08 µM [inhibitor, single point]
O=C(O)CCc1ccc(-c2cccs2)n1CC(=O)Nc1ccccc1C(F)(F)F		inactive
C#CCOCCOCCOCCNc1nc(N2CCN(C(=O)CCCCCCCCCCNC(=O)[C@@H](CCSC)n3cc(CCO)nn3)CC2)nc(N2CCN(C(=O)CCCCCCCCCCNC(=O)[C@H](CCSC)n3cc(CCO)nn3)CC2)n1		inconclusive: 44.7 µM [inhibitor, partial curve, poor fit]
COc1ccccc1CNC(=O)COc1ccccc1C(=O)c1cnn(-c2ccccc2)c1		inconclusive: 44.7 µM [inhibitor, partial curve, poor fit]
COc1cc(CNc2ccc3[nH]c(=O)[nH]c3c2)cc(Br)c1OCc1ccc(F)cc1		inconclusive: 0.891 µM [inhibitor, full curve, poor fit]
CC(C)Oc1ccc(C(=O)N2CC(=O)Nc3ccc(F)cc3C2c2ccc(F)cc2)cc1 (configuration not stated)		inconclusive: 35.5 µM [inhibitor, partial curve, poor fit]
C=C(C)CNC(=S)NN=C1c2ccccc2-c2ccccc21		inconclusive: 50.1 µM [inhibitor, single point]
Cc1c(Cl)cccc1NC(=O)C(=O)NCC(c1cccnc1)N1CCN(c2ccccc2)CC1 (configuration not stated)	inactive: -10.1%	
CCCN1CCc2c(sc(NC(=O)c3ccc(S(=O)(=O)N4CCN(C(=O)OCC)CC4)cc3)c2C(N)=O)C1		inconclusive: 50.1 µM [inhibitor, partial curve]
COc1ccc(NC(=O)Cn2cc(C(=O)C3CCCCC3)c3ccccc32)cc1		inconclusive: 25.1 µM [inhibitor, partial curve]
CC1CCN(C(=O)c2[nH]cnc2C(=O)Nc2ccc(Cl)cc2)CC1		inconclusive: 39.8 µM [inhibitor, partial curve, poor fit]
COC(=O)c1c(NC(=O)c2cc3nc(-c4ccc(Br)cc4)cc(C(F)(F)F)n3n2)sc2c1CCCC2		inconclusive: 50.1 µM [inhibitor, partial curve]

SMILES	activity change, negative = inhibition	Potency
C=CCOc1ccc(/C(O)=C2\C(=O)C(=O)N(CCOC)C2c2cccnc2)cc1 (configuration not stated)	inactive: 10.4%	
CCOc1ccc(CCNC(=O)c2sc3ncccc3c2-n2c(C)ccc2C)cc1		inconclusive: 3.98 µM [inhibitor, partial curve]
CCCNC(=O)C1CCC(Cn2c(=O)c3sccc3n(CC(=O)Nc3ccccc3C)c2=O)CC1 (configuration not stated)	inactive: -14.5%	
CCCN(C(=O)c1sc2nc3n(c(=O)c2c1C)CCCC3)c1ccccc1C	inactive: -16.1%	
O=c1[nH]c(C2CCN(S(=O)(=O)c3ccc([N+](=O)[O-])cc3)CC2)nc2c1nnn2Cc1ccccc1		inconclusive: 6.31 µM [inhibitor, partial curve]
O=C(N/N=C/c1cccs1)c1ccc2ncccc2c1		inconclusive: 44.7 µM [inhibitor, partial curve, poor fit]
O=C(Nc1ccc(Cl)cc1)c1cc2c(-c3ccccc3)nn(-c3ccccc3)c2s1	inactive: -22.1%	
C[C@H]1CNC(=O)c2c(C(=O)Nc3ccc(CNC(=O)OC(C)(C)C)cc3)ncn21	inactive: -2.92%	
Cc1cc2nnc(SC(C)C#N)n2c2ccccc12 (configuration not stated)	inactive: -4.11%	
Cc1ccc(-n2c3nc(=O)[nH]c(=O)c-3cc3c(C)nn(-c4ccccc4)c32)c(C)c1		inactive
O=C(COC(=O)c1ncc(Cl)c(Cl)c1Cl)Nc1ccc(Cl)cn1		inconclusive: 6.31 µM [inhibitor, full curve, poor fit]
COC(=O)CCC(=O)OC1(C)C(=O)C=C2C=C(C3CC3)N(CCc3c[nH]c4ccccc34)C=C2C1=O (configuration not stated)		inconclusive: 28.2 µM [inhibitor, partial curve]
CCCCC(CC)CN=C(N)NC(N)=NCCCCCCN=C(N)NC(N)=NCC(CC)CCCC (configuration not stated)		active: 31.6 µM
CCCCc1ccc(NC(=O)C2(C)Cc3ccccc3C(=O)O2)cc1 (configuration not stated)		inconclusive: 10 µM [inhibitor, full curve, poor fit]
O=C(Nc1ccc(N2CCN(C(=O)c3ccccc3)CC2)cc1)c1ccc(Br)o1	inactive: -14.2%	
CCc1ccc(-n2c(SCc3cccc(F)c3)nc3[nH]ncc3c2=O)cc1		inconclusive: 56.2 µM [inhibitor, partial curve, poor fit]
COc1cccc(NC(=O)c2ccc3nc(Cc4ccccc4)oc3c2)c1		inconclusive: 5.62 µM [inhibitor, partial curve]
CC(C)(C)c1ccc(NC(=O)Nc2ccc(F)cc2)cc1		inconclusive: 35.5 µM [inhibitor, single point]
Cc1[nH][nH]c(=O)c1C(c1ccc(-c2ccc(Cl)c(C(=O)O)c2)o1)c1c(C)[nH][nH]c1=O		inconclusive: 39.8 µM [inhibitor, partial curve, poor fit]
O=C(CSc1oc(-c2ccccc2)nc1S(=O)(=O)c1ccccc1)c1ccccc1		inconclusive: 3.55 µM [inhibitor, partial curve]

Reference: PubChem BioAssay AID743255 (National Center for Advancing Translational Sciences (NCATS), 2014)
